In article doi:10.1101/2020.07.05.188557:
Results are given in words; binding and its absence hold for the method and conditions named. In cells and extracts the contact can be indirect. Some entries that bind do so weakly or less than the wild type. Tags and fused reporters may be left off the sequences shown.

Target: T1, Hxt1-Cub-GST-6xHA (S. cerevisiae) (UniProt P32465)
T1 sequence: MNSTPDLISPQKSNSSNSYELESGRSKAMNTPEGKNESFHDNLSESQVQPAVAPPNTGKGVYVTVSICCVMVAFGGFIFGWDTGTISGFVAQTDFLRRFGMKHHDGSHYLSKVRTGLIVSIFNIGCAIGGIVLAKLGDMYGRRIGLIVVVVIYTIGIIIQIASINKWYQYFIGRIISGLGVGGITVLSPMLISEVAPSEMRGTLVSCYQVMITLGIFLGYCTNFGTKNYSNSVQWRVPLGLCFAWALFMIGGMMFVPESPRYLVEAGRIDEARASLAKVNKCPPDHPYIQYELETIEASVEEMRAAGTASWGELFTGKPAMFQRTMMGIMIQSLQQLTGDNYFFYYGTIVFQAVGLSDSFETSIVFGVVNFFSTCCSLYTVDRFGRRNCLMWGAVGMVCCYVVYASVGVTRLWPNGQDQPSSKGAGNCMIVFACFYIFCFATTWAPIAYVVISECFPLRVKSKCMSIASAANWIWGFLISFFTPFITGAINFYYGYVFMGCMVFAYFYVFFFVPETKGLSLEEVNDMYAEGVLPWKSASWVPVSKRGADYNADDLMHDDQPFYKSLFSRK
Assay: split reporter

B1: Shr3-NubA (protein, UniProt Q02774 1-210)
chain: MFSYSDFCSIGTAMILSATTFLMGVFFSNMPYDYHLLFNPNSTQEHFDLALRHYQILHETPLPVIVTLCVVAGIGLVGGTIKVFKPNPELQMFEYCSLGLYVLAICVFLTNVKTGIDCSVSHNWGEVTENQGLAVIASSNIILLVMFAGVIILQIGLWYSNWDLQKRLKEFYAQEEREAANAGKKTEKVDNAKKNDNKSKGAQKRKNAKK
binding: binds weakly
